Assay results as given in patent US20200399375A1.
Results are given in words; binding and its absence hold for the method and conditions named. Some entries that bind do so weakly or less than the wild type.

Protein sequences, listed by entry. Tags and fused reporters are not part of them. Lines headed by an entry give the natural chain unless they say otherwise; changes in a name come on top. Residues count along the entry.
UniProt Q9NZQ7, residues 19-239: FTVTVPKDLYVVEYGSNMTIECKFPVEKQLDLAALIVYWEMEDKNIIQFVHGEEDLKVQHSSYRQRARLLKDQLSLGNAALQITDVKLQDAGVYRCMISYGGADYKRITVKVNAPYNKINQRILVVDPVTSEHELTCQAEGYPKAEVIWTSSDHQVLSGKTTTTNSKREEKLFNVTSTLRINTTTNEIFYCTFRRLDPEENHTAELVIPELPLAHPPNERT

Target: human PD-L1 antigen (huPD-L1-his, Sino biological, 10084-H08H-200) (human) (UniProt Q9NZQ7)
Assay: BIACORE (Test 4)

binding: binds
B1: humanized 24D5, CDRs directly embedded into the humanized template (24D5_VH.1 / 24D5_VL.1, Grafted) (antibody, V domains shown)
VH: QVQLVQSGAEVKKPGASVKVSCKASGYTFTSYWMHWVRQAPGQGLEWMGRIHPNSGGTSYNEKFKNRVTMTRDTSTSTVYMELSSLRSEDTAVYYCARGGSSYDYFDYWGQGTTVTVSS
VL: DIVLTQSPASLAVSPGQRATITCRASESVSIHGTHLMHWYQQKPGQPPKLLIYAASNLESGVPARFSGSGSGTDFTLTINPVEANDTANYYCQQSFEDPLTFGQGTKLEIK
